Reference: PubChem BioAssay AID1259405 (NCATS, 2018)
Shown is one part, drawn at random, of about 50,000 deposited reagents. Over the whole deposit, about 4,000 (8%) got an active call. 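Mouse siRNA library applied to hamster cells; one well for each siRNA.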 Reagents against one gene are numbered here.

Purpose: 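Knock-downs that lift recombinant protein yield in hamster ovary cells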 (primary screen)
Cell system: Chinese hamster CHO-K1 ovary cells with stable secreted eGFP expression
Reagent: single siRNA against mouse genes, 0.8 pmol siRNA per well (2 µl of 400 nM stock)
Timing: 3 days
Read-out: 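Per-well intracellular GFP measured by laser scanning cytometry, plus viability from ATP luminescence, each relative to plate median of non-targeting control wells, in %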
Direction: GFP, % of control: higher = more GFP per well, higher productivity; viability (ATP), % of control: higher = more viable cells (more ATP)
Hit rule: 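a knock-down is called active if GFP reaches 120% or more of non-targeting control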

For Knop1 #1, the values are GFP, % of control 75.4; viability (ATP), % of control 38.3; inactive. Depletion of Knop1 #2 gave: GFP, % of control 85.7; viability (ATP), % of control 75.8; inactive. For Knop1 #3, the entry reads GFP, % of control 78.9; viability (ATP), % of control 65.6; inactive. Depletion of Or2b2b #1 gave: GFP, % of control 86.4; viability (ATP), % of control 83.2; inactive. Depletion of Or2b2b #2 resulted in: GFP, % of control 44.1; viability (ATP), % of control 87.9; inactive. With knock-down of Or2b2b #3, the screen gave GFP, % of control 46.4; viability (ATP), % of control 87.6; inactive.

Silencing of Myl6b #1 came out at: GFP, % of control 109; viability (ATP), % of control 79.6; inactive. For Myl6b #2, the entry reads GFP, % of control 89; viability (ATP), % of control 80.7; inactive. Sae1 #1 scored GFP, % of control 64.2; viability (ATP), % of control 76.7; inactive. Silencing of Sae1 #2 resulted in: GFP, % of control 75.1; viability (ATP), % of control 70.8; inactive. Sae1 #3 scored GFP, % of control 84.1; viability (ATP), % of control 94.6; inactive. Silencing of Zfp979 #1 resulted in: GFP, % of control 100; viability (ATP), % of control 94.6; inactive.

Zfp979 #2 gave GFP, % of control 64.1; viability (ATP), % of control 51.6; inactive. Knock-down of Zfp979 #3 came out at: GFP, % of control 86.7; viability (ATP), % of control 82.4; inactive. After knock-down of Fam89b #1, the record shows GFP, % of control 82.8; viability (ATP), % of control 70.6; inactive. Knock-down of Fam89b #2 came out at: GFP, % of control 50.4; viability (ATP), % of control 92.7; inactive. After knock-down of Fam89b #3, the screen gave GFP, % of control 68.5; viability (ATP), % of control 48.6; inactive. After knock-down of Phc3 #1, the record shows GFP, % of control 107; viability (ATP), % of control 108; inactive.

With knock-down of Phc3 #2 the results were GFP, % of control 97.4; viability (ATP), % of control 82.6; inactive. Against Pigx #1, the entry reads GFP, % of control 84.3; viability (ATP), % of control 80.8; inactive. Against Pigx #2 the deposit lists GFP, % of control 60.6; viability (ATP), % of control 79.9; inactive. After knock-down of Pigx #3, the screen gave GFP, % of control 112; viability (ATP), % of control 87.3; inactive. Coro6 #1 scored GFP, % of control 53.8; viability (ATP), % of control 51.9; inactive. Depletion of Coro6 #2 gave: GFP, % of control 99.1; viability (ATP), % of control 109; inactive.

With knock-down of Coro6 #3, the record shows GFP, % of control 74; viability (ATP), % of control 66.9; inactive. Maf #1 showed GFP, % of control 98.9; viability (ATP), % of control 81.9; inactive. With knock-down of Maf #2, the screen gave GFP, % of control 50.9; viability (ATP), % of control 78.3; inactive. Maf #3 gave GFP, % of control 104; viability (ATP), % of control 121; inactive.

Reformatted: entries from further up
Target gene,siRNA no.,"GFP, % of control","viability (ATP), % of control",call
Knop1,2,85.7,75.8,inactive
Knop1,3,78.9,65.6,inactive
Or2b2b,1,86.4,83.2,inactive
Or2b2b,2,44.1,87.9,inactive
